Reference: PubChem BioAssay AID504804 (Drosophila RNAi Screening Center, 2011)

- Screen: 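Knock-downs shielding fly cells from apoptosis caused by DNA damage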 (primary screen)
- System: Drosophila Kc cells
- Reagents: long dsRNA against Drosophila genes, 0.5 µg dsRNA per well
- Timing: 96 h (48 h knock-down, then 48 h drug)
- Challenge: doxorubicin 5 µg/ml for 48 h, added 48 h after dsRNA
- Measurement: 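Luminescent ATP counts per replicate, not normalised, reflecting viable cells after 48 h dsRNA knock-down followed by 48 h of 5 µg/ml doxorubicin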
- Reading the numbers: raw ATP luminescence: higher = more viable cells, protection from doxorubicin
- Hit rule: 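z-score of 2 or more over plate mean in both duplicates, retained only when retests and separate dsRNAs confirm the protection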
The deposit covers about 19,000 reagents; below is a random part of those that have a named target and a result. Of all reagents, 47 (0.25%) are marked active. 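Signals are raw, not normalised; exact z-scores behind calls not deposited; actives needed confirmation, so some wells reaching 2 SD are inactive.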 Reagents against one gene are numbered here. No sequences are given here.

For Or98b (Odorant receptor 98b), the entry reads raw ATP luminescence, replicate 1 = 42680; raw ATP luminescence, replicate 2 = 41450; inactive.
Against Pde11 (Phosphodiesterase 11) #1, the values are raw ATP luminescence, replicate 1 = 2.17e5; raw ATP luminescence, replicate 2 = 2.21e5; inactive.
Pde11 (Phosphodiesterase 11) #2 scored raw ATP luminescence, replicate 1 = 28917; raw ATP luminescence, replicate 2 = 25290; inactive.
por (porcupine) showed raw ATP luminescence, replicate 1 = 3.45e5; raw ATP luminescence, replicate 2 = 3.06e5; inactive.
Knock-down of GCC185 (GRIP and coiled-coil domain containing 185 kDa) resulted in: raw ATP luminescence, replicate 1 = 42107; raw ATP luminescence, replicate 2 = 45987; inactive.
For CG30060 the deposit lists raw ATP luminescence, replicate 1 = 79373; raw ATP luminescence, replicate 2 = 89427; inactive.
Octbeta1R (Octopamine beta1 receptor) scored raw ATP luminescence, replicate 1 = 38610; raw ATP luminescence, replicate 2 = 35700; inactive.
Depletion of CG2224 resulted in: raw ATP luminescence, replicate 1 = 59720; raw ATP luminescence, replicate 2 = 51980; inactive.
CG9406 showed raw ATP luminescence, replicate 1 = 30833; raw ATP luminescence, replicate 2 = 33907; inactive.
Silencing of Atg4b (Autophagy-related 4b) came out at: raw ATP luminescence, replicate 1 = 32350; raw ATP luminescence, replicate 2 = 36713; inactive.
Silencing of CG8046 came out at: raw ATP luminescence, replicate 1 = 85187; raw ATP luminescence, replicate 2 = 80137; inactive.
Depletion of CG4757 gave: raw ATP luminescence, replicate 1 = 37417; raw ATP luminescence, replicate 2 = 46863; inactive.
CG10337 gave raw ATP luminescence, replicate 1 = 52740; raw ATP luminescence, replicate 2 = 71957; inactive.
Against CG34337 the deposit lists raw ATP luminescence, replicate 1 = 55620; raw ATP luminescence, replicate 2 = 56760; inactive.
With knock-down of mRpS31 (mitochondrial ribosomal protein S31), the record shows raw ATP luminescence, replicate 1 = 24293; raw ATP luminescence, replicate 2 = 25630; inactive.
Silencing of Mayo came out at: raw ATP luminescence, replicate 1 = 64880; raw ATP luminescence, replicate 2 = 16200; inactive.
After knock-down of CG7058 the results were raw ATP luminescence, replicate 1 = 3.65e5; raw ATP luminescence, replicate 2 = 3.38e5; inactive.
VhaM9.7-d (Vacuolar H[+] ATPase M9.7 subunit d) scored raw ATP luminescence, replicate 1 = 74090; raw ATP luminescence, replicate 2 = 60230; inactive.
CG34248 scored raw ATP luminescence, replicate 1 = 90643; raw ATP luminescence, replicate 2 = 90763; inactive.
Knock-down of hh (hedgehog) came out at: raw ATP luminescence, replicate 1 = 70110; raw ATP luminescence, replicate 2 = 69010; inactive.
Against Ppt1 (Palmitoyl-protein thioesterase 1), the values are raw ATP luminescence, replicate 1 = 47430; raw ATP luminescence, replicate 2 = 43830; inactive.
After knock-down of wcd (wicked), the screen gave raw ATP luminescence, replicate 1 = 52263; raw ATP luminescence, replicate 2 = 53387; inactive.
CG13311 showed raw ATP luminescence, replicate 1 = 62157; raw ATP luminescence, replicate 2 = 75727; inactive.
After knock-down of CG30001 the results were raw ATP luminescence, replicate 1 = 66637; raw ATP luminescence, replicate 2 = 79377; inactive.
After knock-down of Klc (Kinesin light chain), the screen gave raw ATP luminescence, replicate 1 = 36120; raw ATP luminescence, replicate 2 = 33907; inactive.
Depletion of CG31686 (retired record) resulted in: raw ATP luminescence, replicate 1 = 2.08e5; raw ATP luminescence, replicate 2 = 2.65e5; inactive.
Silencing of Arl8 (ADP ribosylation factor-like 8) gave: raw ATP luminescence, replicate 1 = 74843; raw ATP luminescence, replicate 2 = 77047; inactive.
For Polr1C (RNA polymerase I and III subunit C) the deposit lists raw ATP luminescence, replicate 1 = 96557; raw ATP luminescence, replicate 2 = 60213; inactive.

Just “raw ATP luminescence, replicate 1” (5 entries from above):
CG13311 = 62157
CG30001 = 66637
Klc (Kinesin light chain) = 36120
CG31686 (retired record) = 2.08e5
Arl8 (ADP ribosylation factor-like 8) = 74843
